Results as given in article PMC7486383, “Protrudin and PDZD8 contribute to neuronal integrity by promoting lipid extraction required for endosome maturation” (Nature Communications, 2020).

By UniProt entry, the sequences of proteins in these tests, tags left out.
UniProt Q9QY76: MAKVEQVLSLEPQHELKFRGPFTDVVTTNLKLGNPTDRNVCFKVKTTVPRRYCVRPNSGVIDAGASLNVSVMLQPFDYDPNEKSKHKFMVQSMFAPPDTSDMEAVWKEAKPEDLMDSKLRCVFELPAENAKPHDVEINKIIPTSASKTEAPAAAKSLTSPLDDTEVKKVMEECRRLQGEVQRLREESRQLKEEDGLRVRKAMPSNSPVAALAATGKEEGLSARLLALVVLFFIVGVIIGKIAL

T1: His6-FLAG-tagged mouse protrudin (mouse) (UniProt Q3TXX3)
T1 sequence: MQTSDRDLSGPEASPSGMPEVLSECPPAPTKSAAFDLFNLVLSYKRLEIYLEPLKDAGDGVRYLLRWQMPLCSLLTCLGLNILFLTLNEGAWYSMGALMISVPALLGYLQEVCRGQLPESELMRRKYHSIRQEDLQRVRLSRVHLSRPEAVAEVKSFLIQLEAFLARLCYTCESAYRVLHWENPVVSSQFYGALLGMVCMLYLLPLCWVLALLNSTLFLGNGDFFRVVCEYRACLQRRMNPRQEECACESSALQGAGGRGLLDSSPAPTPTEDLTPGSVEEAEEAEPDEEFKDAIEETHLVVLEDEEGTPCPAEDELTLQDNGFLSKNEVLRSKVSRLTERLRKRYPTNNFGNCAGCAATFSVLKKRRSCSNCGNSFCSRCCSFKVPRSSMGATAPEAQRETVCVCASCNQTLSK

T2: endogenous protrudin of mouse brain (mouse (endogenous in mouse brain)) (UniProt Q3TXX3)
T2 sequence: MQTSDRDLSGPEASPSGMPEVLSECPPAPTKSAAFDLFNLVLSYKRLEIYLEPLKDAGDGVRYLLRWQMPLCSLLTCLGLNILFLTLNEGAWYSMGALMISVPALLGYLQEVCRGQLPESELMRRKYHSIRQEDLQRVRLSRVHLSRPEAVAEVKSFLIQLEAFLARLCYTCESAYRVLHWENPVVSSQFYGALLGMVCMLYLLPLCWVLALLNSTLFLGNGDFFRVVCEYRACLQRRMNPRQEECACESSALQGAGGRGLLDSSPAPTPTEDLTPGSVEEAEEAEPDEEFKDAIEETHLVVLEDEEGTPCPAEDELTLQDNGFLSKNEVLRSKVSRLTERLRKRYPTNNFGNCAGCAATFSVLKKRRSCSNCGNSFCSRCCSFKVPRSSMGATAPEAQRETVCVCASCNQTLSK


Experiments:
[1] = target: T1, His6-FLAG-tagged mouse protrudin (mouse); experiment: affinity purification with mass spectrometry; dual affinity purification (anti-FLAG M2 agarose, FLAG peptide elution, then Ni-NTA agarose, imidazole elution) of His6-FLAG-protrudin from the membrane fraction of Neuro2A cells; SDS-PAGE, in-gel trypsin digestion, LC-MS/MS, MASCOT
[2] = target: T2, endogenous protrudin of mouse brain (mouse (endogenous in mouse brain)); experiment: affinity purification with mass spectrometry; immunoprecipitation from the membrane fraction of mouse brain with mouse monoclonal antibodies to protrudin; LC-MS/MS; peptides identified in protrudin knockout mice subtracted; two independent experiments

| binding [1] | binding [2] | Molecule |
| --- | --- | --- |
| binds | – | VAP-B (vesicle-associated membrane protein-associated protein B), endogenous in Neuro2A cells (from UniProt Q9QY76 1-243) |
| binds | – | PDZD8 (PDZ domain-containing 8), endogenous in Neuro2A cells (protein, UniProt B9EJ80 1-1147) MGLLLLILASAVLGSFLTLLAQFLLLYRRQPEPRADEAARAGDGFRYLKPVPGLPLREYLYGGGAEELAACSSEAGASSTPTPDSPAPPTLETCYFLNATILFLFRELRDTALARRWVTKKIKVEFEELLQTKTAGRLLEGLSLRDVFLGDTVPFIKTIRLVRPVVASGTGEPDDPDGDALPATCPEELAFEAEVEYNGGFHLAIDVDLVFGKSAYLFVKLSRVVGRLRFVLTRVPFTHWFFSFVEDPLIDFEVRSQFEGRPMPQLTSIIVNQLKKIIKRKHTLPSYKIRFKPFFPYQALQGFEEDEELIHIQQWALTEGRLKVTLLECSRLFIFGSYDRETNVHCTLELSSGVWEEKQRSSIKTVELIKGNLQSVGLTLRLVQSTDGYAGHVIIETVAPNSPAAMADLQRGDRLIAIGGVKITSTLQVLKLIKQAGDRVLVYYQRPAGQSSQDSLGQLEESFLSSSCQAAYEEDAAGLSADTENRDLDSEFEDLASDVRVQTELKEETQPLSHSPKRTPTTLSIKPLGAISPVLNRKLISGIHPPPQKLPSKEGNKPSTLKTSETTEAAQVSKPQGPTFKPPVPPRPQGRVPLPPTDTSAQADPEAPEKPDKVLLPPPPADKPAEKQVKSVDQGEDVAAGKQSSAKQEGVKDLPSESSAPTKDSSDDPQMWESSEVLYRNKVGKWSRTRASCVFDIEACHRYLNIALWCRDPFKLGGLICLGHVSLKLEEVALGCLATSNMEYLTKFRLEPPTPKAMVTRTALRNLSMQKGFNDKFCFGDITIHFKYLKEGEPDHHIVPNVEKEKELHLVEEVSTLPKEEHFVGQMSLSENKHSFQDTQFQNPTWCDYCKKKVWTKAASQCMFCAYVCHKKCQEKCLAETPLCGATERRIDRTLKNLRLEGQDPLLGLPPRVEIEANKSVNKTTGLTRHIINTSSRLLNLRQVSKTRLSEPGTDLVEPSPKHTPNTSDNEGSDTEVCGSNSPSKRGNSAGIKLMRKEGGLDDSVFIAVKEIGRDLYRGLPTEERIQKLEFMLDKLQNEIDQELEHNNSLVREEKETNDTRKKSVLSAALAKSGERLQALTLLMIHYRAGIEDIETLENLSLDQHSKKMNKYADDTEEDLDSEISQLIDSQPFSNISDDLFGPSESV |
| – | binds | endogenous PDZD8 of mouse brain (protein, UniProt B9EJ80 1-1147) MGLLLLILASAVLGSFLTLLAQFLLLYRRQPEPRADEAARAGDGFRYLKPVPGLPLREYLYGGGAEELAACSSEAGASSTPTPDSPAPPTLETCYFLNATILFLFRELRDTALARRWVTKKIKVEFEELLQTKTAGRLLEGLSLRDVFLGDTVPFIKTIRLVRPVVASGTGEPDDPDGDALPATCPEELAFEAEVEYNGGFHLAIDVDLVFGKSAYLFVKLSRVVGRLRFVLTRVPFTHWFFSFVEDPLIDFEVRSQFEGRPMPQLTSIIVNQLKKIIKRKHTLPSYKIRFKPFFPYQALQGFEEDEELIHIQQWALTEGRLKVTLLECSRLFIFGSYDRETNVHCTLELSSGVWEEKQRSSIKTVELIKGNLQSVGLTLRLVQSTDGYAGHVIIETVAPNSPAAMADLQRGDRLIAIGGVKITSTLQVLKLIKQAGDRVLVYYQRPAGQSSQDSLGQLEESFLSSSCQAAYEEDAAGLSADTENRDLDSEFEDLASDVRVQTELKEETQPLSHSPKRTPTTLSIKPLGAISPVLNRKLISGIHPPPQKLPSKEGNKPSTLKTSETTEAAQVSKPQGPTFKPPVPPRPQGRVPLPPTDTSAQADPEAPEKPDKVLLPPPPADKPAEKQVKSVDQGEDVAAGKQSSAKQEGVKDLPSESSAPTKDSSDDPQMWESSEVLYRNKVGKWSRTRASCVFDIEACHRYLNIALWCRDPFKLGGLICLGHVSLKLEEVALGCLATSNMEYLTKFRLEPPTPKAMVTRTALRNLSMQKGFNDKFCFGDITIHFKYLKEGEPDHHIVPNVEKEKELHLVEEVSTLPKEEHFVGQMSLSENKHSFQDTQFQNPTWCDYCKKKVWTKAASQCMFCAYVCHKKCQEKCLAETPLCGATERRIDRTLKNLRLEGQDPLLGLPPRVEIEANKSVNKTTGLTRHIINTSSRLLNLRQVSKTRLSEPGTDLVEPSPKHTPNTSDNEGSDTEVCGSNSPSKRGNSAGIKLMRKEGGLDDSVFIAVKEIGRDLYRGLPTEERIQKLEFMLDKLQNEIDQELEHNNSLVREEKETNDTRKKSVLSAALAKSGERLQALTLLMIHYRAGIEDIETLENLSLDQHSKKMNKYADDTEEDLDSEISQLIDSQPFSNISDDLFGPSESV |
| binds | – | VAP-A (vesicle-associated membrane protein-associated protein A), endogenous in Neuro2A cells (protein, UniProt Q9WV55 1-249) MASASGAMAKHEQILVLDPPSDLKFKGPFTDVVTTNLKLQNPSDRKVCFKVKTTAPRRYCVRPNSGIIDPGSIVTVSVMLQPFDYDPNEKSKHKFMVQTIFAPPNISDMEAVWKEAKPDELMDSKLRCVFEMPNENDKLNDMEPSKAVPLNASKQDGPLPKPHSVSLNDTETRKLMEECKRLQGEMMKLSEENRHLRDEGLRLRKVAHSDKPGSTSAVSFRDNVTSPLPSLLVVIAAIFIGFFLGKFIL |

No constants are given. Whether binding was seen depends on the method and setting. Binding seen in cells or lysates may run through a third protein. These calls come from enrichment with a bait or labelling near it, and not all partners need be listed. For some of these results: Sequences can lack the tags named with a protein.
